Values from PubChem BioAssay AID1259308 (NCATS, 2017).
Assay: 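Genes whose loss raises luciferase production in HEK293 cells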 (primary screen). Cell system: human HEK293 embryonic kidney cells stably expressing firefly luciferase (HEK-CMV-Luc2-Hygro). Reagents: single siRNA against human genes, 0.8 pmol siRNA per well. Time to read-out: 72 h. Measured: 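Reporter luminescence and viable-cell signal on separate replicate plates, given as percent of non-targeting control and median/MAD z-scores, plus per-cell luciferase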. Reading the numbers: total luciferase, z-score: higher = more reporter protein produced. Call rule: 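Active when the median/MAD z-score for overall luciferase is greater than 3; a gene was taken forward for validation with new siRNAs if at least two of its three siRNAs passed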. Meaning of the calls: active = raised luciferase; inactive = no rise.
Shown is an unselected part of about 59,000 reagents tested. Of all reagents, about 1,510 (2.6%) got an active call. 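Calls use total luciferase alone and ignore viability, so some active siRNAs may act by altering cell number.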 Reagents against one gene are numbered here. Further read-outs or replicates are left out here.

OR4D2 #1 | total luciferase, z-score = -1.29; Outcome = inactive
OR4D2 #2 | total luciferase, z-score = -0.0757; Outcome = inactive
OR4D2 #3 | total luciferase, z-score = 0.333; Outcome = inactive
THNSL2 #1 | total luciferase, z-score = 0.00781; Outcome = inactive
THNSL2 #2 | total luciferase, z-score = 0.881; Outcome = inactive
THNSL2 #3 | total luciferase, z-score = 1.36; Outcome = inactive
GUSBP18 #1 | total luciferase, z-score = -0.549; Outcome = inactive
GUSBP18 #2 | total luciferase, z-score = 0.211; Outcome = inactive
GUSBP18 #3 | total luciferase, z-score = -0.335; Outcome = inactive
ANKRD50 #1 | total luciferase, z-score = -0.0867; Outcome = inactive
ANKRD50 #2 | total luciferase, z-score = -1.91; Outcome = inactive
ANKRD50 #3 | total luciferase, z-score = 1.13; Outcome = inactive

Continued, starting with the last 4 of the part before.
GUSBP18 #3 | total luciferase, z-score = -0.335; Outcome = inactive
ANKRD50 #1 | total luciferase, z-score = -0.0867; Outcome = inactive
ANKRD50 #2 | total luciferase, z-score = -1.91; Outcome = inactive
ANKRD50 #3 | total luciferase, z-score = 1.13; Outcome = inactive
HMGA2 #1 | total luciferase, z-score = 1.45; Outcome = inactive
HMGA2 #2 | total luciferase, z-score = 1.71; Outcome = inactive
HMGA2 #3 | total luciferase, z-score = -0.774; Outcome = inactive
SLC38A10 #1 | total luciferase, z-score = -0.564; Outcome = inactive
SLC38A10 #2 | total luciferase, z-score = 0.0363; Outcome = inactive
SLC38A10 #3 | total luciferase, z-score = 4.58; Outcome = active
HNRNPA3 #1 | total luciferase, z-score = 0.227; Outcome = inactive
HNRNPA3 #2 | total luciferase, z-score = 1.14; Outcome = inactive
HNRNPA3 #3 | total luciferase, z-score = 2.84; Outcome = inactive
RFPL1 #1 | total luciferase, z-score = -0.527; Outcome = inactive
RFPL1 #2 | total luciferase, z-score = 3.41; Outcome = active
RFPL1 #3 | total luciferase, z-score = -1.52; Outcome = inactive
PPP4R2 #1 | total luciferase, z-score = 1.03; Outcome = inactive
PPP4R2 #2 | total luciferase, z-score = -1.31; Outcome = inactive
PPP4R2 #3 | total luciferase, z-score = -0.377; Outcome = inactive
COG4 #1 | total luciferase, z-score = 1.1; Outcome = inactive
COG4 #2 | total luciferase, z-score = -0.609; Outcome = inactive
COG4 #3 | total luciferase, z-score = -1.9; Outcome = inactive
RPL32P36 #1 | total luciferase, z-score = -0.253; Outcome = inactive
RPL32P36 #2 | total luciferase, z-score = -2.96; Outcome = inactive
RPL32P36 #3 | total luciferase, z-score = -1.24; Outcome = inactive
